Among all 580,000 compounds or so, about 6,100 (1.1%) were called active. The inconclusive results got no clear call from the source; some entries with a clear call stand among them for comparison. The call rests on the fitted dose curve; in most records, active means well fitted inhibition curve with a large enough effect; inconclusive means small, poorly fitted or top-dose-only effect, or another doubt; inactive means no such curve, though single readings can be large or run the other way. Where the call is inconclusive, the potency comes from a doubtful curve fit.
molecular target: Polyunsaturated fatty acid lipoxygenase ALOX12 (Homo sapiens) (UniProt P18054); assay: Primary qHTS assay for inhibitors of human arachidonate 12S-lipoxygenase (ALOX12): Round 2; settings: purified 12hLO, xylenol orange hydroperoxide absorbance; activity change, negative = inhibition: at 108 µM (top of the series) unless noted
Summary of the method: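 Purified human 12hLO at 150 nM in 25 mM Hepes, 0.01% Triton X-100, pH 7.0, preincubated 15 min at room temperature with compound. Reaction started with 40 uM arachidonic acid, 30 min at room temperature. Hydroperoxide measured by Fe-xylenol orange, 573/405 nm absorbance ratio.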
On the % scale 0 is the no-effect control and ±100 the full control effect; potency means the concentration at half of the fitted maximal effect.

The chains behind the UniProt entries cited, without tags or fusion partners.
UniProt P18054, whole entry, looked up: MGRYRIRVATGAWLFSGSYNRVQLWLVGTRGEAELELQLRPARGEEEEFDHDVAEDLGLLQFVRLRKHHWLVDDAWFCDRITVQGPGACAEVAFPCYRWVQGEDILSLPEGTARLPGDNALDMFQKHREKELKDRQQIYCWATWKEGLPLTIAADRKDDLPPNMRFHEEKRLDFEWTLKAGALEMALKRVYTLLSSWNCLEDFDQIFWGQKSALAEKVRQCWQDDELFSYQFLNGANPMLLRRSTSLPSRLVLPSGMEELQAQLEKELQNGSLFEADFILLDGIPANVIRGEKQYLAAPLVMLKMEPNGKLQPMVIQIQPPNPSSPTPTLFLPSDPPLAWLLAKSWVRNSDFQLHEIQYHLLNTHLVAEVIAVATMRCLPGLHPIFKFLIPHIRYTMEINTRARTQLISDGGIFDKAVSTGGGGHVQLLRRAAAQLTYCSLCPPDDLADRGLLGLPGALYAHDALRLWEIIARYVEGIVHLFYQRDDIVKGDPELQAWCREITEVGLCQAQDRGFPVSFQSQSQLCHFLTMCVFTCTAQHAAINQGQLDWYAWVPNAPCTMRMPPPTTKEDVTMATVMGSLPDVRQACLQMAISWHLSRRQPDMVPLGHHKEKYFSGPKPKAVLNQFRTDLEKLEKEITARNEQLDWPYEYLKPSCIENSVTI

Question: `O=C(Cn1ncc2c3ccccc3n(Cc3cccc(Cl)c3)c2c1=O)NCCCc1ccccc1` was tested. Which Potency did it give?
Answer: The Potency was inconclusive: 112 µM [inhibitor, partial curve, poor fit].

Question: With `CN(C)c1ccc(C=Cc2nccc3ccccc23)cc1` as the compound, how does the Potency read?
Answer: Its Potency is inconclusive: 0.891 µM [inhibitor, full curve, poor fit].

Question: How did the Potency turn out when `CCOC(=O)C1CCCN(CC(=O)Nc2cc(C)cc(C)c2)C1` (stereo not given) was run?
Answer: Its Potency is inconclusive: 50.1 µM [inhibitor, partial curve, poor fit].

Question: With `CNc1csc(C)c(C)c1=O` as the compound, how does the Potency read?
Answer: The Potency was inconclusive: 22.4 µM [inhibitor, full curve, poor fit].

Question: With `N#C/C(=C(/O)COc1ccccc1)c1nc2ccccc2s1` as the compound, how does the “activity change, negative = inhibition” value read?
Answer: Its value is inactive: -1.71%.

Question: Which Potency does the source give for `COc1ccc(-c2ccc(C(=O)NCC3Cc4cccc(-c5nc(C)cnc5C)c4O3)o2)cc1` (stereo not given) here?
Answer: Its Potency is inconclusive: 100 µM [inhibitor, single point].

Question: How did the Potency turn out when `Cc1ccc(Cl)cc1N1C(=O)CC(Sc2ccccc2N)C1=O` (stereo not given) was run?
Answer: Its Potency is inconclusive: 89.1 µM [inhibitor, partial curve, poor fit].

Question: For `Cc1ccccc1CNC(=O)c1ccco1`, which “activity change, negative = inhibition” value is on record?
Answer: The value was inactive: 10.9%.

Question: For `CC(NC(=O)c1ccco1)C(c1cccs1)N1CCN(c2ccc(F)cc2)CC1` (stereo not given), which “activity change, negative = inhibition” value is on record?
Answer: The value was inactive: -2.07%.

Question: With `Cc1cc(C)n(-c2ccc(C(=O)Nc3ccc(S(=O)(=O)NCc4ccco4)cc3)cc2)n1` as the compound, how does the “activity change, negative = inhibition” value read?
Answer: The value was inactive: -18.3%.

Question: Which Potency does the source give for `NCCCn1c(C(=O)c2cc(Cl)c(N)c(Cl)c2)c2ccc(C(F)(F)F)cc2[n+]1[O-]` here?
Answer: Its Potency is inconclusive: 44.7 µM [inhibitor, partial curve].

Question: How did the “activity change, negative = inhibition” value turn out when `CS(=O)(=O)Nc1ccc(N2CCN(c3ccc(C(F)(F)F)cn3)CC2)nc1` was run?
Answer: The value was inactive: 14.7%.

Question: For `O=S(=O)(NCc1ccccn1)c1cc(Cl)ccc1Cl`, which Potency is on record?
Answer: Its Potency is inconclusive: 112 µM [inhibitor, single point].

Question: For `Cc1sc2ncnc(Sc3ccccc3C(=O)Nc3ccc(Br)cc3)c2c1C`, which Potency is on record?
Answer: The Potency was active: 10 µM.

Question: `Cn1cc(C(=O)N2CCN(S(=O)(=O)c3ccccc3)CC2)c2ccccc21` was tested. Which “activity change, negative = inhibition” value did it give?
Answer: The value was inactive: 3.66%.

Question: `CN(CCOc1ccc(F)cc1)C(=O)c1cn(C)c2ccccc12` was tested. Which “activity change, negative = inhibition” value did it give?
Answer: Its value is inactive: -1.2%.

Question: Which Potency does the source give for `Cc1cc(O)c(C(c2ccccc2)N2CCN(c3ccccc3)CC2)c(=O)n1Cc1ccco1` (stereo not given) here?
Answer: The Potency was inconclusive: 50.1 µM [inhibitor, partial curve, poor fit].

Question: `COc1cccc(OC)c1C(=O)NCCc1ccccc1` was tested. Which “activity change, negative = inhibition” value did it give?
Answer: The value was inactive: -42%.

Question: How did the “activity change, negative = inhibition” value turn out when `Cc1ccc(NC(=O)COc2ccccc2C(=O)NCc2ccccc2)cc1` was run?
Answer: The value was inactive: 152%.

Question: Which “activity change, negative = inhibition” value does the source give for `CCc1cccc(C)c1NC(=O)CCCn1c(C)c2cnn(-c3ccccc3)c(=O)c2c1C` here?
Answer: Its value is inactive: -5.78%.

Question: For `Nc1ccccc1N1C(=O)c2cccc3cccc(c23)C1=O`, which “activity change, negative = inhibition” value is on record?
Answer: Its value is inactive: 141%.

Question: With `O=C(O)c1cc(=O)n(Cc2ccccc2)c(=O)[nH]1` as the compound, how does the Potency read?
Answer: The Potency was inconclusive: 1.78 µM [inhibitor, partial curve, poor fit].

Question: `CCOCCCNC(=O)c1ccoc1` was tested. Which Potency did it give?
Answer: Its Potency is inconclusive: 141 µM [inhibitor, partial curve, poor fit].

Question: Which Potency does the source give for `CC1CCc2c(sc(NC(=O)COCC(=O)O)c2C(=O)Nc2ccccc2)C1` (stereo not given) here?
Answer: The Potency was inconclusive: 20 µM [inhibitor, partial curve, poor fit].

Question: `Cc1ccc(-n2nc(C)c([C@@H]3C=C[C@@H](NC(=O)CC(C)(C)CC(=O)O)C3)c2C)cc1Cl` was tested. Which Potency did it give?
Answer: Its Potency is inconclusive: 39.8 µM [inhibitor, partial curve, poor fit].

Question: `Cc1cccc(S(=O)(=O)N2CCN(c3ccc(N4CCCCC4)nn3)CC2)c1` was tested. Which Potency did it give?
Answer: The Potency was inconclusive: 56.2 µM [inhibitor, partial curve, poor fit].

Question: With `CCOc1cc(C)c(Cl)cc1S(=O)(=O)n1cnc2ccccc21` as the compound, how does the Potency read?
Answer: Its Potency is inconclusive: 100 µM [inhibitor, partial curve, poor fit].

Question: Which “activity change, negative = inhibition” value does the source give for `CCCCOC(=O)c1ccc(OC(=O)c2sc3ncn(Cc4cccc(F)c4)c(=O)c3c2C)cc1` here?
Answer: The value was inactive: 4.33%.

Question: How did the Potency turn out when `CC1=C(C(=O)Nc2ccccn2)C(c2ccc(Br)cc2)NC(=S)N1` (stereo not given) was run?
Answer: Its Potency is inconclusive: 17.8 µM [inhibitor, full curve, poor fit].

Question: `O=[N+]([O-])c1ccc(C2=CSC3=NCCN23)cc1` was tested. Which Potency did it give?
Answer: The Potency was inconclusive: 2.82 µM [inhibitor, full curve, poor fit].

Question: With `CN1C(=O)CC(C(=O)Nc2ccc(C(=O)O)cc2)SC1=Nc1ccc(Cl)cc1` (stereo not given) as the compound, how does the Potency read?
Answer: The Potency was inconclusive: 56.2 µM [inhibitor, partial curve, poor fit].

Question: Which “activity change, negative = inhibition” value does the source give for `CC(C(=O)N1CCOCC1)n1ccc2cc(S(=O)(=O)N3CCCCCC3)ccc21` (stereo not given) here?
Answer: The value was inactive: -26%.

Question: How did the “activity change, negative = inhibition” value turn out when `c1coc(-c2cc(CSc3nnc(-c4ccncc4)o3)no2)c1` was run?
Answer: The value was inactive: -49%.

Question: For `CC(C)c1ccc(CN2CCC(n3nccc3NC(=O)C3CCCC3)CC2)cc1`, which “activity change, negative = inhibition” value is on record?
Answer: Its value is inactive: -5.49%.

Question: How did the “activity change, negative = inhibition” value turn out when `O=C(NC(Cc1c[nH]c2ccccc12)C(=O)O)C1CC1` (stereo not given) was run?
Answer: Its value is inactive: -25.1%.

Question: For `O=C(NCC1CCCO1)C1c2ccccc2C(=O)N1C1CCCCCCC1` (stereo not given), which “activity change, negative = inhibition” value is on record?
Answer: Its value is inactive: 0%.

Question: With `CC(C)(C)NC(=O)C(c1c[nH]c2ccccc12)N(C(=O)Cn1nnc(-c2ccc(F)cc2)n1)c1cccc(O)c1` (stereo not given) as the compound, how does the Potency read?
Answer: Its Potency is inconclusive: 7.94 µM [inhibitor, full curve, poor fit].

Question: Which “activity change, negative = inhibition” value does the source give for `Cc1ccc(-c2nc(NC(=O)c3cc(C)on3)sc2C)cc1` here?
Answer: Its value is inactive: -2.32%.

Question: For `CCN(CC)c1ccc(NS(=O)(=O)c2cc(-c3onc(C)c3C)ccc2OC)c(C)c1`, which Potency is on record?
Answer: Its Potency is inconclusive: 50.1 µM [inhibitor, partial curve, poor fit].

Question: `CCN(CC)CCCNC(=O)Cn1ncc2c3ccccc3n(Cc3ccccc3)c2c1=O` was tested. Which Potency did it give?
Answer: The Potency was inconclusive: 50.1 µM [inhibitor, partial curve, poor fit].

Question: `CN1/C(=C/C2CC(=O)N(c3cccc4ccccc34)C2=O)C(C)(C)c2ccccc21` (stereo not given) was tested. Which Potency did it give?
Answer: The Potency was inconclusive: 35.5 µM [inhibitor, partial curve].

Question: `COc1cc2c(cc1OC)C(Cc1ccc(O)cc1)NCC2` (stereo not given) was tested. Which “activity change, negative = inhibition” value did it give?
Answer: The value was inactive: 59%.

Question: With `Fc1ccc(COc2cccc(CNCC3CCNCC3)c2)cc1` as the compound, how does the Potency read?
Answer: Its Potency is inconclusive: 39.8 µM [inhibitor, partial curve, poor fit].

Question: `Oc1ccccc1/C=N/c1c(-c2ccco2)nc2ccccn12` was tested. Which Potency did it give?
Answer: The Potency was inconclusive: 35.5 µM [inhibitor, single point].

Question: `C/C=C/C(=O)OCC(=O)c1ccc(Br)s1` was tested. Which Potency did it give?
Answer: Its Potency is inconclusive: 44.7 µM [inhibitor, partial curve, poor fit].

Question: Which Potency does the source give for `O=C(c1cccc(Cl)c1)N1CCCC(n2cc(-c3nc(-c4ccccc4)no3)nn2)C1` (stereo not given) here?
Answer: The Potency was inconclusive: 17.8 µM [inhibitor, full curve, poor fit].

Question: `COc1cccc(-c2nnc(SCC(=O)N(C)c3ccccc3)o2)c1` was tested. Which “activity change, negative = inhibition” value did it give?
Answer: Its value is inactive: -3.33%.

Question: For `Nc1cc(-c2ccc(Cl)cc2)nn1S(=O)(=O)c1ccc(Cl)cc1`, which Potency is on record?
Answer: Its Potency is inconclusive: 39.8 µM [inhibitor, partial curve, poor fit].

Question: How did the “activity change, negative = inhibition” value turn out when `Cc1ccc(/C=N/NC(=O)C2C(C=C(Cl)Cl)C2(C)C)cc1` (stereo not given) was run?
Answer: Its value is inactive: -1.09%.

Question: `O=C(CCc1ccccc1Cl)NCc1cccc(C(F)(F)F)c1` was tested. Which “activity change, negative = inhibition” value did it give?
Answer: The value was inactive: 5.74%.

Question: With `Cc1ccc(CN(C(=O)c2sc3ccccc3c2Cl)C2CCS(=O)(=O)C2)cc1` (stereo not given) as the compound, how does the Potency read?
Answer: The Potency was inconclusive: 50.1 µM [inhibitor, partial curve, poor fit].

Question: With `Cc1ccc2c(c1)[C@H]1[C@H](CO2)[C@H](c2ccccc2)[C@]2(C)C(=O)Nc3ccc(Br)cc3C(=O)N12` as the compound, how does the Potency read?
Answer: The Potency was inconclusive: 79.4 µM [inhibitor, partial curve, poor fit].

Question: How did the “activity change, negative = inhibition” value turn out when `N/C(=N\OC(=O)c1cccc2ccccc12)c1cccnc1` was run?
Answer: Its value is inactive: -16.3%.

Question: How did the “activity change, negative = inhibition” value turn out when `CCn1nc(C(=O)Nc2ccc(C)cc2C)c2ccccc2c1=O` was run?
Answer: The value was inactive: 4.01%.

Question: Which “activity change, negative = inhibition” value does the source give for `CC(C1CC1)N(Cc1ccccc1)S(=O)(=O)c1ccccc1Cl` (stereo not given) here?
Answer: The value was inactive: -8.55%.

Question: `Cc1cccc(CNc2ncnc3ccc(-c4cccnc4)cc23)c1` was tested. Which Potency did it give?
Answer: The Potency was inconclusive: 10 µM [inhibitor, partial curve, poor fit].

Question: How did the Potency turn out when `CCC(CC)C(=O)n1ccn(S(=O)(=O)c2ccc(C)cc2)c1=O` was run?
Answer: The Potency was inconclusive: 100 µM [inhibitor, partial curve, poor fit].

Question: `CN(C)CCn1cnc2c(c1=N)C(c1ccccc1)c1ccc3ccccc3c1O2` (stereo not given) was tested. Which Potency did it give?
Answer: The Potency was inconclusive: 100 µM [inhibitor, single point].

Question: For `CCn1c2ccccc2c2cc(CN3CCN(Cc4ccc(Cl)cc4)CC3)ccc21`, which Potency is on record?
Answer: Its Potency is inconclusive: 3.16 µM [inhibitor, full curve, poor fit].

Question: Which Potency does the source give for `CCCc1cc(=O)[nH]c(SCc2nnc(-c3ccc(OC)cc3)o2)n1` here?
Answer: The Potency was inconclusive: 39.8 µM [inhibitor, partial curve, poor fit].

Question: Which Potency does the source give for `O=C(N[C@H]1CCN2C(=O)c3cc(-c4ccc(F)cc4F)ccc3NC(=O)[C@H]12)c1cccc(F)c1` here?
Answer: The Potency was inconclusive: 25.1 µM [inhibitor, full curve].

Question: With `Cc1ccc(C)c(NC(=O)c2cc3c(s2)CCC3)c1` as the compound, how does the Potency read?
Answer: The Potency was inconclusive: 100 µM [inhibitor, single point].

Question: How did the Potency turn out when `CCOCCCn1c(C)nc2c(c1=O)c1nc3ccccc3nc1n2CCC1=CCCCC1` was run?
Answer: Its Potency is inconclusive: 89.1 µM [inhibitor, single point].

Question: `N#Cc1ccccc1COc1ccccc1` was tested. Which “activity change, negative = inhibition” value did it give?
Answer: The value was inactive: -9.31%.

Question: For `Cc1cc(C)[n+](C)n1-c1ccccc1`, which Potency is on record?
Answer: The Potency was active: 17.8 µM.

Question: For `Cc1ccc(-n2c(Cn3c(C)nc4ccccc43)n[nH]c2=S)cc1`, which Potency is on record?
Answer: The Potency was inconclusive: 44.7 µM [inhibitor, partial curve, poor fit].

Question: Which Potency does the source give for `O=C(CCCc1nc(-c2ccccc2)no1)Nc1cccc(S(=O)(=O)N2CCOCC2)c1` here?
Answer: The Potency was inconclusive: 89.1 µM [inhibitor, partial curve, poor fit].

Question: `C/C(CC(=O)Nc1ccc(N(C)C)cc1)=N\NC(=O)c1ccccc1O` was tested. Which “activity change, negative = inhibition” value did it give?
Answer: Its value is inactive: 10.7%.

Question: Which Potency does the source give for `S=C(NCc1cccs1)Nc1cccc2ccccc12` here?
Answer: The Potency was inconclusive: 39.8 µM [inhibitor, partial curve, poor fit].

Question: For `Cc1ccc(S(=O)(=O)Nc2cc(=O)[nH]c(SCC(=O)Nc3ccccc3Cl)n2)cc1`, which Potency is on record?
Answer: The Potency was inconclusive: 44.7 µM [inhibitor, partial curve, poor fit].
